These results are taken from article PMC7819943, “Rice protein-binding microarrays: a tool to detect cis-acting elements near promoter regions in rice”.

Sequences of proteins named here, by UniProt entry; tags and fusion partners are left off.
UniProt Q0JBA9, entry or part of it: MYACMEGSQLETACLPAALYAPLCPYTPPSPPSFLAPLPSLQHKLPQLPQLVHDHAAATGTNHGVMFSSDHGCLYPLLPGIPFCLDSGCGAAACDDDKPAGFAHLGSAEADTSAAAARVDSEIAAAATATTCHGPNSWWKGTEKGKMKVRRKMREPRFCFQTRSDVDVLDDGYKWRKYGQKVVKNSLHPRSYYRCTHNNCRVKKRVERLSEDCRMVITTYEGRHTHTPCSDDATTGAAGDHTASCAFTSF

This is one part of the list.

This assay deals with OsWRKY34 (Oryza sativa, UniProt Q0JBA9 1-250). Kind of assay: protein-binding microarray (RPBM); PBS, 2% BSA, 51.3 ng/ul salmon testes DNA, 50 uM zinc acetate, 200 nM TF, 25 C, 1 h; high values mean tight binding. Particulars: protein: recombinant; tags: N-terminal polyhistidine and DsRed monomer fusion (pET32a); label: CyDye5-dUTP incorporated in the synthesized complementary strand; 3' TTTTT single-stranded linker to array surface; dsDNA, one strand shown. In short, it runs like this: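 An Axon 4000B scanner gave the binding signal as per-feature fluorescence intensity in arbitrary units. This followed washing of a custom Agilent array that had been incubated for 1 h at 25 °C with 200 nM protein in PBS, 2% BSA, salmon testes DNA and 50 µM zinc acetate. The proteins were transcription factors fused at the N-terminus to polyhistidine and DsRed, expressed in E. coli BL21-CodonPlus and purified on Ni–NTA.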
As to “ACTGGTGGCACATTGTAGATATTGCAAAATTCGTTTCCAACGGAGTCACCTAGTGCAG”, the binding signal is 8120 fluorescence intensity (a.u.).
In the case of “TAGTACATCCATCCATCCATTCACTTCCATCCACGGATCACGGAGTCACCTAGTGCAG”, the binding signal was 10300 fluorescence intensity (a.u.).
The figure for “TTGTGTTTATATAATCCTCCACCTCCGCGCACGTCTTGATCGGAGTCACCTAGTGCAG” is 9220 fluorescence intensity (a.u.); for “GCTACTAGTCTACCTTATAATCCACCTACTGGGTCTTACACGGAGTCACCTAGTGCAG” it is 10800 fluorescence intensity (a.u.); for “ATTGCCTTACTTGTTGCACTATGGAGGTCCTGAGAGCCTTCGGAGTCACCTAGTGCAG” it is 8110 fluorescence intensity (a.u.).
For “TTCTATCCATTTTCATTTTCCATTTTTCTATTTAGTTTTTCGGAGTCACCTAGTGCAG”, the binding signal is 12000 fluorescence intensity (a.u.).
Then “CCACACCCATTGCCACCTTCTGCGCGCTACTAAGGGCCGCCGGAGTCACCTAGTGCAG”, with 10700 fluorescence intensity (a.u.); and “ATCACGCAATCCCGGCTCTCTTCTTTGTTCCCGCGCGTGGCGGAGTCACCTAGTGCAG”, with 10400 fluorescence intensity (a.u.); and “ACCCACAACATCACAGCACGGTTGCCGCTTGCTCCGGTGTCGGAGTCACCTAGTGCAG”, with 8160 fluorescence intensity (a.u.).
Then “GTTATAGGCCTTGATGAGTTATAGCACTTTGTTATTGATACGGAGTCACCTAGTGCAG”, with 8140 fluorescence intensity (a.u.).
With “CGTTGGTGTGGGAGAAGATCCATAATGTTGTTGGGTATTGCGGAGTCACCTAGTGCAG”, the binding signal was 10600 fluorescence intensity (a.u.).
Regarding “TATATTTTGTTTTTGTCTCTAATATAGGTTTATAACTAGCCGGAGTCACCTAGTGCAG”, the binding signal is 8570 fluorescence intensity (a.u.).
“ACTACCTTCTCTTCAACACCCAAAAGATCATCTCTTGAACCGGAGTCACCTAGTGCAG”: the binding signal was 8970 fluorescence intensity (a.u.).
Then “CGAGCTGCTTCTTCGTCTCCAACTTCCCTTATCTCTATCACGGAGTCACCTAGTGCAG”, with 10500 fluorescence intensity (a.u.); and “AATTGTTGACTAATCGATTCATGCAGTTACGTACTGTCATCGGAGTCACCTAGTGCAG”, with 8930 fluorescence intensity (a.u.).
For the sequence “CACTGCCCTGTTCATCTCTTTCTTTTTTATTCGATTCCTCCGGAGTCACCTAGTGCAG”, the binding signal was 11600 fluorescence intensity (a.u.).
Then “CATGCCAGCCCATGCCTTCCCGTCCCTAGATCCGCCATATCGGAGTCACCTAGTGCAG”, with 8290 fluorescence intensity (a.u.); and “GTTTTTTTTACCACCCACAGCACCGAGCCGCTGACCTTATCGGAGTCACCTAGTGCAG”, with 8410 fluorescence intensity (a.u.).
Consider “TACATGGGCAACAGCCTTCCGTGGGCTAGTACTTATTCGGCGGAGTCACCTAGTGCAG”, for which the binding signal was 8090 fluorescence intensity (a.u.).
For the sequence “GGGATGATTGCTTCTGGATCTTGTGGGGATTTGTAAGTCACGGAGTCACCTAGTGCAG”, the binding signal was 11700 fluorescence intensity (a.u.).
With “GGTGAGCACGACTAGTCGCGTATTAGCCTCTCGTCCGACGCGGAGTCACCTAGTGCAG”, the binding signal was 8550 fluorescence intensity (a.u.).
As to “TTATCTTTTCTTTAAGCTCTGTACAACTTGCCAATATGTTCGGAGTCACCTAGTGCAG”, the binding signal is 8540 fluorescence intensity (a.u.).
“GTGTTTTTTTGGACTGAGTTGTTTTTATTTTTGAGGGGAACGGAGTCACCTAGTGCAG”: the binding signal was 10700 fluorescence intensity (a.u.).
For the sequence “CGGCGGTGGGTCGTCTTCCTCGTTGCCGGTCGGCACCCTCCGGAGTCACCTAGTGCAG”, the binding signal was 10800 fluorescence intensity (a.u.).
Then “GGGGTGTTTGGATAGGGCTAAAAATTTTTTAATCTCATTCCGGAGTCACCTAGTGCAG”, with 11100 fluorescence intensity (a.u.).
Then “GGTGCTTCAATTTGTTCTTATAATTTCTTGCTTGGTCTGCCGGAGTCACCTAGTGCAG”, with 13300 fluorescence intensity (a.u.); and “TATTATGAAAACACTATTCTCTCCCAATGCACAACTTAATCGGAGTCACCTAGTGCAG”, with 8320 fluorescence intensity (a.u.); and “TTCTTCGTTGCTGCTGGTTTGGTGGGAAGAAGAATTGGTGCGGAGTCACCTAGTGCAG”, with 8200 fluorescence intensity (a.u.).
With “CTCGATCACGTACTACTACACATAGACCTACTACTTGAGCCGGAGTCACCTAGTGCAG”, the binding signal was 8620 fluorescence intensity (a.u.).
Then “GCTCAAGAATTGAGCCCATAGTTCATCTGTTCTTTGCAAACGGAGTCACCTAGTGCAG”, with 8640 fluorescence intensity (a.u.); and “TGGTGGTTGACATGCGAGTCCTTTGACCCTATGTCATTTCCGGAGTCACCTAGTGCAG”, with 9510 fluorescence intensity (a.u.).
Consider “GAGCTCTCATGTTCTGTTCGCTGTTAATTAATCGTCTAATCGGAGTCACCTAGTGCAG”, for which the binding signal is 9580 fluorescence intensity (a.u.).
“CCCACTGCGCACCGCTTCCTGGTTCGCCTTGCTTCCCAATCGGAGTCACCTAGTGCAG”: the binding signal was 8580 fluorescence intensity (a.u.).
Consider “CTTGCTTGGCAACTGATCCGGCGCTCCACCATTCAACCGACGGAGTCACCTAGTGCAG”, for which the binding signal was 8210 fluorescence intensity (a.u.).
With “GCGCCCTGTCCGTCTTCAAGTTCATCCAAGCGCCGTCGGTCGGAGTCACCTAGTGCAG”, the binding signal is 9590 fluorescence intensity (a.u.).
In the case of “CCTCCGCTCCTAAATATTTGACACCGCTGACTTTTTAAAACGGAGTCACCTAGTGCAG”, the binding signal was 11100 fluorescence intensity (a.u.).
On to “CTCCGACGACCCCACCGTGCCCACCCCGACCGCCGTCTCGCGGAGTCACCTAGTGCAG”, for which the binding signal is 9650 fluorescence intensity (a.u.).
In the case of “GTGACACGGTTTCCAAAACACAACATTGACTTTCTTATTTCGGAGTCACCTAGTGCAG”, the binding signal is 8620 fluorescence intensity (a.u.).
With “ACATTTCCTGACTTTGGCCAACACACACCCCTAACCCTCACGGAGTCACCTAGTGCAG”, the binding signal was 11200 fluorescence intensity (a.u.).
Regarding “CACTAATTGATCAATTGCACAACAAATTGCTTGAATAACGCGGAGTCACCTAGTGCAG”, the binding signal is 65500 fluorescence intensity (a.u.).
As for “CCGCCGCCGCCATCGTCCTCTTCCGCCACCACCGCCATCGCGGAGTCACCTAGTGCAG”, the binding signal was 10000 fluorescence intensity (a.u.).
On to “CGGCTCGGCTCGGCTCGCGCGGCGGCGGCGGCGGGGCGGCCGGAGTCACCTAGTGCAG”, for which the binding signal is 8890 fluorescence intensity (a.u.).
